According to PubChem BioAssay AID504834 (National Center for Advancing Translational Sciences (NCATS), 2011):
Out of some 320,000 compounds screened, about 22,000 (6.9%) were called active. Inconclusive means that the source gave no clear call. Such entries were picked first, then a sample of the others. The call rests on the fitted dose curve; in most records, active means well fitted inhibition curve with a large enough effect; inconclusive means small, poorly fitted or top-dose-only effect, or another doubt; inactive means no such curve, though single readings can be large or run the other way. Where the call is inconclusive, the potency comes from a doubtful curve fit.

Experiment: Primary qHTS for delayed death inhibitors of the malarial parasite plastid, 96 hour incubation
Settings: P. falciparum luciferase reporter growth; series mostly up to 28.7 µM; activity change, negative = inhibition: at the top concentration
Procedure, shortened: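 Two parasite generations (96 h, 37 C, 5% CO2) of compound exposure in infected erythrocytes (0.05% parasitemia, 2% hematocrit). Luciferase-reporter P. falciparum; decreased luminescence indicates inhibited growth, aimed at apicoplast-acting delayed death.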
On the % scale 0 is the no-effect control and ±100 the full control effect; potency means the concentration at half of the fitted maximal effect.

| SMILES | activity change, negative = inhibition | Potency |
| --- | --- | --- |
| COc1cc(NC(=O)c2ccccc2F)ccc1NC(=O)c1ccccc1Cl | inactive: 71.8% | – |
| N#CCC(=O)Nc1ccc(C(=O)Nc2cccc(S(N)(=O)=O)c2)cc1 | – | inconclusive: 11.7 µM [inhibitor, single point] |
| CN(CC(=O)Nc1cccc(F)c1)CC(=O)Nc1cccc([N+](=O)[O-])c1 | – | inconclusive: 18.5 µM [inhibitor, single point] |
| COc1ccc(CNC(=O)CCS(=O)(=O)Cc2cccc(Cl)c2)c(OC)c1 | – | inconclusive: 1.04 µM [inhibitor, partial curve, poor fit] |
| CC(C)(C)OC(=O)N1CCC(CC2CC(c3ccc(Cl)cc3)=NO2)(C(=O)NCC2CCCCC2)CC1 (centres undefined) | – | inconclusive: 0.104 µM [inhibitor, full curve, poor fit] |
| Cc1nc(N)sc1C(=O)N/N=C/c1ccc([N+](=O)[O-])cc1 | inactive: 19.5% | – |
| COc1ccccc1OCC(O)Cn1c(=N)n(Cc2ccccc2)c2ccccc21 (centres undefined) | – | inconclusive: 18.5 µM [inhibitor, single point] |
| CCO[C@H]1OC(C(=O)N2CCN(Cc3ccc4c(c3)OCO4)CC2)=C[C@@H](C2CCCCC2)[C@@H]1CCCO | – | active: 4.15 µM |
| COC(=O)C1=C(CSc2nc3c(cc2C#N)CN(C)CC3)OC(N)=C(C#N)C1c1ccc(F)cc1 (centres undefined) | – | inconclusive: 6.57 µM [inhibitor, partial curve, poor fit] |
| O=[N+]([O-])c1ccc(N2CCN(CCO)CC2)cc1Sc1ccccn1 | – | inconclusive: 0.586 µM [inhibitor, partial curve, poor fit] |
| Cc1cccc(N2C(=O)CC(n3ccnc3)C2=O)c1C (centres undefined) | – | inconclusive: 3.7 µM [inhibitor, full curve, poor fit] |
| O=C(Nc1cccc(F)c1)Nc1ccnn1C1CCN(C(=O)c2ccccn2)CC1 | inactive: -9.68% | – |
| CC(C)Cn1nc(NS(=O)(=O)c2ccccc2)c2cc3ccccc3nc21 | – | inconclusive: 1.04 µM [inhibitor, partial curve, poor fit] |
| Cn1nc(C(C)(C)C)cc1NC(=O)Nc1ccc(Cl)cc1 | – | inconclusive: 13.1 µM [inhibitor, single point] |
| COc1ccc(Cl)cc1NC(=O)CN(C)C(=O)CCc1nc2ccccc2c(=O)[nH]1 | – | inconclusive: 18.5 µM [inhibitor, single point] |
| CCOC(=O)c1cnn2c(C)cc(-c3ccccc3)nc12 | – | inconclusive: 18.5 µM [inhibitor, single point] |
| CCn1nc(C)c(CN2CCc3c([nH]c4ccccc34)C2C(C)(C)C)c1C (centres undefined) | – | inconclusive: 18.5 µM [inhibitor, single point] |
| CCN(CC)CCOC(=O)C(C)(c1ccccc1)c1ccccc1 | – | active: 10.7 µM |
| O=C(CCN1C(=O)[C@@H]2Cc3ccccc3CN2C1=O)NCc1ccccc1Cl | – | inconclusive: 18.5 µM [inhibitor, single point] |
| NS(=O)(=O)c1ccc(-n2nncc2C23CC4CC(CC(C4)C2)C3)cc1 | – | inconclusive: 10.4 µM [inhibitor, single point] |
| Cn1c(=O)c2c(nc(SCC(=O)c3ccc(F)cc3)n2C)n(C)c1=O | – | inconclusive: 18.5 µM [inhibitor, single point] |
| COc1ccc(CN2CCCCCC2)cc1Br | inactive: 15.1% | – |
| COc1ccc(NC(=O)CN(C)C(=O)c2cn(-c3ccccc3)nc2-c2ccc(Cl)cc2)cc1 | – | inconclusive: 18.5 µM [inhibitor, single point] |

| SMILES | activity change, negative = inhibition | Potency |
| --- | --- | --- |
| O=C(c1cccc(S(=O)(=O)N2CCCC2)c1)N1CCN(Cc2ccccc2)CC1 | – | inconclusive: 2.94 µM [inhibitor, full curve, poor fit] |
| CCN(C(=S)NC(=O)c1ccccc1Br)C1CCCCC1 | – | inconclusive: 18.5 µM [inhibitor, single point] |
| O=C(Nc1nc2ccccc2s1)c1cc2c(s1)-c1ccccc1OC2 | – | inconclusive: 11.7 µM [inhibitor, single point] |
| CC(C)CC(=O)NC(=S)Nc1ccc(N2CCCC2)c(Cl)c1 | – | inconclusive: 0.0026 µM [inhibitor, full curve, poor fit] |
| O=C(Cn1nnc(-c2ccccc2)n1)N/N=C/c1cc([N+](=O)[O-])ccc1O | – | active: 10.4 µM |
| Cc1ccc(C(=O)Nc2ccc(C)c(S(=O)(=O)Nc3ccccc3Cl)c2)s1 | inactive: 3.72% | – |
| Cc1cc(C)cc(NC(=O)C2CCCC2)c1 | – | inconclusive: 18.5 µM [inhibitor, single point] |
| Cc1ccccc1NC(=S)NC(=O)Cc1ccc(Cl)cc1 | – | inconclusive: 18.5 µM [inhibitor, single point] |
| c1cncc(CSc2nnc3ccc(-c4cccs4)nn23)c1 | – | inconclusive: 18.5 µM [inhibitor, single point] |
| CCOC(=O)CC1C(=O)NCCN1Cc1cccs1 (centres undefined) | inactive: 84% | – |
| c1csc(-c2nc(-c3ccc(-c4ccon4)s3)no2)c1 | inactive: 260% | – |
| COc1ccc(-c2cc3ccc(OCC(=O)NCC4CCC(C(=O)O)CC4)cc3oc2=O)cc1 (centres undefined) | inactive: 118% | – |
| Cc1cnc(NC(=O)c2cccc(S(=O)(=O)N3CCOCC3)c2)s1 | – | inconclusive: 16.5 µM [inhibitor, single point] |
| CCN(CC)CCOC(=O)C1(c2ccc(OC)c(OC)c2)CCCC1 | – | inconclusive: 2.62 µM [inhibitor, single point] |
| CC(C)CNS(=O)(=O)c1ccc(CCC(=O)NCC2CCCO2)cc1 (centres undefined) | – | inconclusive: 10.4 µM [inhibitor, partial curve] |
| CCn1cc2nc(SCC(=O)Nc3ccc(OC)cc3OC)n(Cc3ccc(OC)cc3)c(=O)c2n1 | inactive: 28.9% | – |
| COc1ccc(OC)c(CNC(=O)C2CCCN(c3ncnc4c3nc3n4CCCCC3)C2)c1 (centres undefined) | – | inconclusive: 1.31 µM [inhibitor, full curve] |
| Cc1ccc(-n2cc(CCCCCCCCC(=O)O)nn2)cc1 | – | active: 5.86 µM |
| Cc1ccc(S(=O)(=O)CCc2nc3ccccc3[nH]2)cc1 | inactive: -18% | – |
| CCOc1ccc(S(=O)(=O)N/N=C\c2ccc3c(c2)OCO3)cc1 | – | inconclusive: 16.5 µM [inhibitor, partial curve, poor fit] |
| Nc1sccc1C(=O)c1ccc(Cl)cc1 | – | inconclusive: 18.5 µM [inhibitor, single point] |
| Cc1nc2ncnn2c(N2CCN(C(=O)c3cccc(F)c3)CC2)c1C | – | inconclusive: 5.22 µM [inhibitor, partial curve] |
| Cc1cccc(NC(=O)c2cc(NC(=O)C3CCCCC3C(=O)O)ccc2Cl)n1 (centres undefined) | inactive: 10.4% | – |

| SMILES | activity change, negative = inhibition | Potency |
| --- | --- | --- |
| O=C(NC(=S)Nc1ccc(F)c(Cl)c1)C1CC1 | inactive: -6.48% | – |
| CCOc1ccc(CCNC(=O)COC(=O)COc2ccc(Br)cc2)cc1OCC | – | inconclusive: 13.1 µM [inhibitor, single point] |
| COc1ccc(S(=O)(=O)N2CCOCC2)cc1NC(=O)c1cc(C)oc1C | – | active: 11.7 µM |
| CCOc1ccccc1NC(=O)c1cccc2ccccc12 | – | inconclusive: 11.7 µM [inhibitor, single point] |
| COc1ccc(C2c3[nH]c4ccccc4c3C[C@H]3C(=O)N(C)CC(=O)N23)cc1OC (some centres undefined) | – | inconclusive: 18.5 µM [inhibitor, single point] |
| COc1cc(NC(=S)N2CCC(C(N)=O)CC2)c(OC)cc1Cl | inactive: 33.1% [at 5.75 µM] | – |
| Cc1ccc(NC(=S)N2CCN(S(=O)(=O)c3ccc(F)cc3)CC2)cc1 | – | inconclusive: 18.5 µM [inhibitor, single point] |
| O=C(CN1CCOCC1)Nc1ccccc1Sc1ccc(Cl)cc1 | – | inconclusive: 8.28 µM [inhibitor, single point] |
| Cc1ccc(C)c(S(=O)(=O)NCCCc2ccccc2)c1 | inactive: 23.3% | – |
| COc1nonc1NC(=O)CSc1nc2ccccc2[nH]1 | – | inconclusive: 5.86 µM [inhibitor, partial curve, poor fit] |
| O=C(CCC1CCCC1)NNC(=O)c1ccccc1O | inactive: 36.1% | – |
| C/C(CC(=O)Nc1ccc(OCc2ccccc2)cc1)=N\NC(=O)C(=O)Nc1ccc(C)c(Cl)c1 | inactive: 0% | – |
| NC(=O)CC(NC(=O)c1cccc(Br)c1)c1ccc(NC2CCN(Cc3ccccc3)CC2)c([N+](=O)[O-])c1 (centres undefined) | – | inconclusive: 10.4 µM [inhibitor, single point] |
| O=c1[nH]cnc2sc3c(c12)CCN(Cc1ccccc1)C3 | inactive: -29% | – |
| O=C(C1CCCN(S(=O)(=O)c2ccc(F)cc2)C1)N1CCCC1 (centres undefined) | – | inconclusive: 16.5 µM [inhibitor, partial curve, poor fit] |
| Cc1ccnc(Cc2ccccc2)n1 | inactive: 30% | – |
| CC(C)(C)c1ccc(C(=O)N2CCC(C(=O)NC3CCCCCC3)CC2)cc1 | inactive: -19.8% | – |
| O=C(NC(=S)Nc1ccccc1N1CCCC1)c1ccc([N+](=O)[O-])cc1 | – | inconclusive: 9.28 µM [inhibitor, single point] |
| Cc1nc(SCC(=O)NCC(F)(F)F)c2c(-c3cccs3)csc2n1 | – | inconclusive: 11.7 µM [inhibitor, partial curve] |
| Cc1nc2cc(-c3ccc(Cl)cc3)nn2c(NCCN(C)C)c1C | – | active: 10.4 µM |
| O=C(COc1ccc(S(=O)(=O)N2CCCCC2)cc1)NCC1CCCO1 (centres undefined) | – | inconclusive: 18.5 µM [inhibitor, single point] |
| CCOc1cc(N2CCOCC2)c(OCC)cc1NC(=O)COc1ccccc1[N+](=O)[O-] | – | inconclusive: 10.4 µM [inhibitor, partial curve, poor fit] |
| O=C(CN1CCN(S(=O)(=O)c2ccccc2)CC1)Nc1ccc2c(c1)CCC2 | – | inconclusive: 1.65 µM [inhibitor, partial curve, poor fit] |

Rewritten as tab-separated lines: entries from further up.
SMILES	activity change, negative = inhibition	Potency
COc1ccc(CNC(=O)CCS(=O)(=O)Cc2cccc(Cl)c2)c(OC)c1	–	inconclusive: 1.04 µM [inhibitor, partial curve, poor fit]
CC(C)(C)OC(=O)N1CCC(CC2CC(c3ccc(Cl)cc3)=NO2)(C(=O)NCC2CCCCC2)CC1 (centres undefined)	–	inconclusive: 0.104 µM [inhibitor, full curve, poor fit]
C/C(CC(=O)Nc1ccc(OCc2ccccc2)cc1)=N\NC(=O)C(=O)Nc1ccc(C)c(Cl)c1	inactive: 0%	–
